Values of other authors, collected in US20190060340A1, “NOVEL AMINOGLYCOSIDES AND USES THEREOF IN THE TREATMENT OF GENETIC DISORDERS” (Technion Research & Development Foundation Limited, priority 2007, published 2019).
Some of these results come from one statement about several compounds together.

Tested on: human fibroblast cells
Conditions: ref [49]; cited from earlier work

Substance | LD50 against human fibroblast cells [mg/mL]
gentamicin [reference compound] | 2.5 to 5.0
neomycin | 2.5 to 5.0
